In the supplement of paper PMC3334620:
In all, about 33,000 sequences were measured (“E-score (-0.5 to 0.5)”: median about -0.016, highest 2% from about 0.3 on). Some of the results follow.

target: T1, Yer184c (UniProt P39961); test: PBM E-score (8-mer binding enrichment) (E-score (-0.5 to 0.5)); higher = stronger / more preferred TF binding; settings: protein concentration: 100 nM; construct: GST-full length
T1 sequence: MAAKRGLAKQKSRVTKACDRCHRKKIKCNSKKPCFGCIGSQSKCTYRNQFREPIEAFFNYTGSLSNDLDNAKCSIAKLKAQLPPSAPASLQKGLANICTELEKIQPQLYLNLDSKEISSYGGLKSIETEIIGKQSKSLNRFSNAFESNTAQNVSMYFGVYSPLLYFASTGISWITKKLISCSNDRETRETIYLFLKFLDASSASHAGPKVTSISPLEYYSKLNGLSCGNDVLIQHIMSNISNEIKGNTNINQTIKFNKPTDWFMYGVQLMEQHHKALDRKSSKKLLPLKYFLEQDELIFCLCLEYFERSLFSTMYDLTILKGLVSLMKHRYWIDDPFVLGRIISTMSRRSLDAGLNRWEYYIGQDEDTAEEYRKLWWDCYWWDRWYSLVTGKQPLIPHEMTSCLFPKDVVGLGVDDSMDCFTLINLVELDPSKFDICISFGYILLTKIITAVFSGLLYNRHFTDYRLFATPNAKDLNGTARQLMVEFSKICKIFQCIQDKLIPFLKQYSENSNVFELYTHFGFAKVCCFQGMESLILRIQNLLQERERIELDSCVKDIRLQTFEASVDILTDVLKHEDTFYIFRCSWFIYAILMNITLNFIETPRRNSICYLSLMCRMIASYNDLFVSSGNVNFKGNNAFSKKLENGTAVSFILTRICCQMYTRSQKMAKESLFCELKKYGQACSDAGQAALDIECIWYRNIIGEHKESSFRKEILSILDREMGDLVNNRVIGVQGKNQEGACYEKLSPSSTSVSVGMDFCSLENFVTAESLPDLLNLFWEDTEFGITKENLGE
Procedure, shortened: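 Full-length yeast transcription factors or their DNA-binding domains, GST-tagged and expressed with PURExpress, were applied at about 100-200 nM to universal all-10-mer Agilent arrays. These arrays had been made double-stranded by primer extension on fresh or once-stripped slides. Detection used fluorescent anti-GST, normalisation used masliner, and E-scores for ungapped eight-base words pooled with reverse complements came from the Universal PBM Analysis Suite.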

| Sequence | PBM E-score |
| --- | --- |
| TATCGTGA | -0.0301 |
| AAACACCT | 0.105 |
| AGGTGTAC | -0.13 |
| AGTTCCAT | -0.0279 |
| GCCATAAA | -0.0191 |
| AATCCAAT | 0.012 |
| GGTAAACC | 0.0229 |
| ACCTTACT | 0.0926 |
| TAAGGCGA | -0.0439 |
| GATGGATA | 0.0331 |
| AATGCGAA | 0.00751 |
| AACAGAGT | 0.0963 |
| GTACGTAA | -0.116 |
| CCCAAGAA | -0.00755 |
| GTTATAAC | 0.0565 |
| ATAACTCG | 0.177 |
| AGCGCGCA | 0.16 |
| AATCCCTC | -0.0459 |
| CGAGCTTC | 0.197 |
| CATTTGCA | 0.0176 |
| AAGTTGAA | 0.0794 |
| CCATACTC | -0.196 |
| AGAACCTA | -0.0786 |
| ATGTCTCG | -0.135 |
| AGTTCAAG | 0.213 |

Copied from the list:
Entry for AACAGAGT under PBM E-score: 0.0963
Entry for AGAACCTA under PBM E-score: -0.0786
Entry for AAACACCT under PBM E-score: 0.105
Entry for CCATACTC under PBM E-score: -0.196

The results go on:

| Sequence | PBM E-score |
| --- | --- |
| ACCATCTA | -0.209 |
| GCCTATGA | -0.0701 |
| GTCACGCA | -0.211 |
| ACCACCGG | 0.19 |
| CACCACTC | 0.087 |
| CAGCAAGC | -0.339 |
| ACTCACTC | 0.0279 |
| AGCGGCAA | 0.067 |
| AATTGAAC | -0.047 |
| GAGCCCCA | -0.266 |
| CCATACAG | -0.247 |
| ACCCCTGG | -0.271 |
| ACTATAGA | 0.0663 |
| GGTCACGA | -0.167 |
| CGGCAGAA | 0.181 |
| TGGAACCA | 0.138 |
| CAAGGTGA | -0.164 |
| ATAACCGA | 0.0743 |
| GCAGTGCC | -0.0882 |
| ATATGTCA | 0.137 |
| AGATTCCT | -0.215 |
| GCCTATAC | -0.197 |
| CAAGTAAG | -0.0398 |
| AAACGATT | 0.0499 |
| CAGCGAGG | -0.218 |

| Sequence | PBM E-score |
| --- | --- |
| GCATCTGA | -0.246 |
| CCATTTGC | -0.0263 |
| ACGAACCA | 0.175 |
| GAGTGAGA | -0.00227 |
| ATAGCCAT | -0.0685 |
| AGTTGGGA | -0.158 |
| CTACCAGA | -0.027 |
| ACGACACA | 0.0328 |
| ATAGCTCG | 0.0146 |
| CTGATGAA | -0.113 |
| AACCTGTC | -0.172 |
| CGCGTTCC | 0.11 |
| ATTCGACC | -0.122 |
| TGTAATAA | 0.109 |
| TCACAAGA | -0.0427 |
| ATGCGTAC | 0.00954 |
| GTTTGCGA | 0.0727 |
| CGCCGAAC | 0.345 |
| CGCAGCCA | -0.159 |
| CTGTTTAC | 0.0661 |
| ACTCTGCC | -0.135 |
| ACCGAGAA | 0.282 |
| CTCCTAAC | -0.169 |
| CATGGAAA | 0.177 |
| ACAGCAGG | 0.00933 |

| Sequence | PBM E-score |
| --- | --- |
| AATCATCA | 0.0958 |
| CCACGCGG | -0.0278 |
| CCCATTAA | -0.26 |
| GAGTGGGA | -0.0887 |
| GCTATTTA | 0.00211 |
| GAAGCATA | 0.00797 |
| ATGACGGA | 0.198 |
| ACGCACTG | -0.142 |
| AAAAGACA | 0.171 |
| AACACGTA | 0.0731 |
| GACCGTCC | 0.016 |
| AACGTAGG | -0.213 |
| CCAAACAG | -0.157 |
| GAGTAGAC | 0.0132 |
| CAAAGCTC | -0.087 |
| GAGCGCTA | -0.0744 |
| AGTGACAT | -0.0178 |
| GCCAGGAA | -0.0728 |
| AATTCATA | 0.161 |
| CCAGTTAA | 0.184 |
| GTTATCCA | 0.0792 |
| CCATAGAC | -0.204 |
| AAGCCCAT | -0.276 |
| AAGGCCAA | -0.188 |
| AACATCAT | 0.0556 |

| Sequence | PBM E-score |
| --- | --- |
| CCTATTGA | -0.0147 |
| AGACCTAT | 0.0227 |
| CGGGTCAG | 0.211 |
| CGCGAAAG | 0.0067 |
| CTTACTAA | 0.0659 |
| GATGAGAC | 0.0726 |
| CTGCCTTC | -0.208 |
| GCTCACCC | -0.0666 |
| AAGCGAAG | -0.0615 |
| ATGTCTTG | -0.164 |
| AGTGAATG | 0.059 |
| ACAATCAT | 0.0332 |
| GCGCAAGA | 0.188 |
| TACGATCA | -0.0538 |
| CGTGTATA | -0.0305 |
| ATAGCGCA | -0.208 |
| AGGCGTCC | -0.115 |
| GGCGGAAC | 0.199 |
| CATCCAGC | 0.0644 |
| CCATGGCC | -0.171 |
| AACAAAAG | 0.214 |
| GAGCTAGA | -0.218 |
| GACTCTTA | -0.0537 |
| CCCTGAAC | 0.0873 |
| CTCTGAGA | -0.222 |

Four successive records from above:

| Sequence | PBM E-score |
| --- | --- |
| AGTGAATG | 0.059 |
| ACAATCAT | 0.0332 |
| GCGCAAGA | 0.188 |
| TACGATCA | -0.0538 |

More results

| Sequence | PBM E-score |
| --- | --- |
| ATTCATAG | -0.0217 |
| GCTTGTAC | 0.00313 |
| CAATTGGC | -0.0196 |
| ACCGAACA | 0.259 |
| CCGGAGCA | 0.27 |
| TGTACAAA | 0.0948 |
| AGCTCTGC | -0.361 |
| AGCTTGCG | -0.0182 |
| AATGTAGA | -0.00883 |
| AGAGTTAG | -0.0311 |
| CTGTATAA | -0.0127 |
| GACATAGA | -0.0364 |
| CTCAAAAG | 0.0257 |
| CGTATGCC | -0.126 |
| TACCGCCA | 0.0022 |
| TCCATTAA | 0.0096 |
| GCGCCAGA | -0.0326 |
| AAAGTGCG | -0.041 |
| GTATCCAC | -0.0729 |
| TTAGCAAA | 0.0757 |
| CTGAGAAG | -0.168 |
| ATTGCCCA | -0.102 |
| GACGGAGA | 0.17 |
| ACTAACCC | -0.0862 |
| AGTCATCG | -0.0837 |

| Sequence | PBM E-score |
| --- | --- |
| TCGTGTAA | 0.0721 |
| AAATTAAT | 0.226 |
| TGACGCCA | -0.18 |
| GAGCCGAC | 0.0364 |
| CGCCTATA | -0.126 |
| GCCTTAGA | -0.0429 |
| CCTACACC | -0.309 |
| CATATGGA | -0.0756 |
| CCGGTAGG | 0.0264 |
| GCTTCTCA | -0.146 |
| CACTCGGC | 0.331 |
| AGTCTTTC | -0.04 |
| CCTCGGGA | 0.00362 |
| AACTACTC | 0.175 |
| AACTTTAC | 0.0892 |
| ATGCACCA | -0.138 |
| AAGCGAAT | 0.114 |
| GTACCACA | 0.0348 |
| CGGGCAAC | 0.0952 |
| CATAATAG | 0.0861 |
| AGCTTCAT | 0.112 |
| CCATATCA | 0.0317 |
